Results are given in words; binding and its absence hold for the method and conditions named.

Chains of the proteins cited; added tags and fusions are not shown. Lines headed by an entry give the natural chain unless they say otherwise; changes in a name come on top. A line that says so, or that is headed by a name, gives the form on record, which may keep a tag or linker. Residues count along the entry.
B-Myb DNA-binding domain (B-Myb^34–183) (P10244, residues 34-183): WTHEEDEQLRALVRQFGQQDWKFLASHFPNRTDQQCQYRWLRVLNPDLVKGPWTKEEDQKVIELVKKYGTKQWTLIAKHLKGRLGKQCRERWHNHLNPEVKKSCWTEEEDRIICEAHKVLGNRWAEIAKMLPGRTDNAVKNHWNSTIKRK
B-Myb^440–510 (N-terminal half of the NRD) (P10244, residues 440-510): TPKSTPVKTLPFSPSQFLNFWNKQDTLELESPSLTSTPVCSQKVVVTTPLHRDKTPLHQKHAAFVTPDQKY
B-Myb NRD^510–600 LLL mutant (L541, L545, L549 to alanine) (P10244-1, form named): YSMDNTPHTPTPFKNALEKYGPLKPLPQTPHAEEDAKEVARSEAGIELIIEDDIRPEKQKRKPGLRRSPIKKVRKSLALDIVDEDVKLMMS
B-Myb NRD^510–600 TTT mutant (T515A, T518A, T520A), phosphorylated by Cdk2-CycA (P10244-1, form named): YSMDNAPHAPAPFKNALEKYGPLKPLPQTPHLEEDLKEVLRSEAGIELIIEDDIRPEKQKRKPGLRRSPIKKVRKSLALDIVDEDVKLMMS
B-Myb NRD^510–600 LEED mutant (L541, E542, E543, D544 to alanine) (P10244-1, form named): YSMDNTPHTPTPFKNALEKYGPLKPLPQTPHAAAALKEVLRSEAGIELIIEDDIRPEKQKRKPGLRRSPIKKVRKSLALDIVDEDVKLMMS

What all share (assay): ITC; DBD (500 μM) titrated into NRD (50 μM) at 19 °C; 150 mM NaCl, 20 mM Tris, 1 mM BME (pH 8); MicroCal VP-ITC; mean of three technical replicates; both purified
Background: ITC needs no label: the signal is the heat of the interaction.

The target of test [1] is B-Myb NRD^510–600 LLL mutant (L541, L545, L549 to alanine) (human) (UniProt P10244).
Test [2] has as its target B-Myb NRD^510–600 TTT mutant (T515A, T518A, T520A) (human) (UniProt P10244).
Test [3] addresses B-Myb NRD^510–600 LEED mutant (L541, E542, E543, D544 to alanine) (human) (UniProt P10244).
Test [4] addresses B-Myb NRD^510–600 TTT mutant (T515A, T518A, T520A), phosphorylated by Cdk2-CycA (human) (UniProt P10244).
Test [5] addresses B-Myb^440–510 (N-terminal half of the NRD) (human) (UniProt P10244).

Regarding “B-Myb DNA-binding domain (B-Myb^34–183) (from UniProt P10244-1 34-183) (domain or fragment)”, the binding entry in test [1], in test [2], in test [3], in test [4] and in test [5] was “no binding (tested: DBD 500 μM titrated into NRD 50 μM)” each time.

For the origin of these results see article PMC9478404.
